Experimental data from PMC12523843, “Kuwanon A Targeted YWHAB in Hepatocellular Carcinoma Cells to Inhibit the Raf/MEK/ERK Signaling Pathway” (Cells, 2025).

The compounds below were run on normal human liver cells (L-O2) (assay: MTT IC50 determination in normal liver cells). Conditions: L-O2 vs MHCC97 H, MTT method.
Format: cell-based
Description: Cell viability was assessed using MTT experiments. Cells, together with KA, were seeded into 96-well plates at a density of 2000 cells per well with three replicates per condition. DMSO was used as a control. At designated time points, 20 μL of MTT (Sigma, St. Louis, MO, USA) solution was added to each well and incubated for 3 h. After removing the culture medium, 200 μL of DMSO was added to dissolve the formazan crystals. The absorbance was then measured using a microplate reader at a wavelength of 560 nm.

| Compound | ratio of IC50 in normal liver cells compared to tumor cells |
| --- | --- |
| Cc1cc2c3c(c1)-c1c(O)cc(-c4cc5ccc(O)cc5o4)cc1OC3(c1ccc(O)cc1O)Oc1cc(O)ccc1-2 (stereo not shown) [Albanol B, albanol B] | greater than 3 |
| CC(C)=CCc1c(-c2ccc(O)c3c2OC(C)(C)C=C3)oc2cc(O)cc(O)c2c1=O [KA, Kuwanon A] | greater than 3 |
| CC(C)=CCc1c(-c2ccc(O)cc2O)oc2c([C@H]3C=C(C)C[C@@H](c4ccc(O)cc4O)[C@@H]3C(=O)c3ccc(O)cc3O)c(O)cc(O)c2c1=O [Kuwanon G, kuwanon G] | greater than 3 |
| CC(C)=CCC/C(C)=C/Cc1c(O)ccc(-c2oc3cc(O)cc(O)c3c(=O)c2CC=C(C)C)c1O [L8-06, 3'-geranyl-3-prenyl-2',4',5,7-tetrahydroxyflavone] | greater than 3 |
| CC(C)=CCc1c(-c2ccc(O)cc2O)oc2c3c(cc(O)c2c1=O)OC(C)(C)C=C3 [Morusin] | greater than 3 |
| CC(C)(O)CCc1c(-c2ccc(O)cc2O)oc2c3c(cc(O)c2c1=O)OC(C)(C)C=C3 [Morusinol] | greater than 3 |
| CC(C)=CCc1c(-c2ccc(O)cc2O)oc2c(CC=C(C)C)c(O)cc(O)c2c1=O [Mulberrin] | greater than 3 |
| sanggenol L | greater than 3 |
| sanggenone C | greater than 3 |
| sanggenone D | greater than 3 |
